Test results as given in paper doi:10.1101/2023.08.08.552464.
No constants are given. Whether binding was seen depends on the method and setting. Binding seen in cells or lysates may run through a third protein. Some entries that bind do so weakly or less than the wild type.

Target: T1, Mitotic-phase GTPase activating protein (MP-GAP) (human (endogenous in HeLa)) (UniProt Q6P4F7)
T1 sequence: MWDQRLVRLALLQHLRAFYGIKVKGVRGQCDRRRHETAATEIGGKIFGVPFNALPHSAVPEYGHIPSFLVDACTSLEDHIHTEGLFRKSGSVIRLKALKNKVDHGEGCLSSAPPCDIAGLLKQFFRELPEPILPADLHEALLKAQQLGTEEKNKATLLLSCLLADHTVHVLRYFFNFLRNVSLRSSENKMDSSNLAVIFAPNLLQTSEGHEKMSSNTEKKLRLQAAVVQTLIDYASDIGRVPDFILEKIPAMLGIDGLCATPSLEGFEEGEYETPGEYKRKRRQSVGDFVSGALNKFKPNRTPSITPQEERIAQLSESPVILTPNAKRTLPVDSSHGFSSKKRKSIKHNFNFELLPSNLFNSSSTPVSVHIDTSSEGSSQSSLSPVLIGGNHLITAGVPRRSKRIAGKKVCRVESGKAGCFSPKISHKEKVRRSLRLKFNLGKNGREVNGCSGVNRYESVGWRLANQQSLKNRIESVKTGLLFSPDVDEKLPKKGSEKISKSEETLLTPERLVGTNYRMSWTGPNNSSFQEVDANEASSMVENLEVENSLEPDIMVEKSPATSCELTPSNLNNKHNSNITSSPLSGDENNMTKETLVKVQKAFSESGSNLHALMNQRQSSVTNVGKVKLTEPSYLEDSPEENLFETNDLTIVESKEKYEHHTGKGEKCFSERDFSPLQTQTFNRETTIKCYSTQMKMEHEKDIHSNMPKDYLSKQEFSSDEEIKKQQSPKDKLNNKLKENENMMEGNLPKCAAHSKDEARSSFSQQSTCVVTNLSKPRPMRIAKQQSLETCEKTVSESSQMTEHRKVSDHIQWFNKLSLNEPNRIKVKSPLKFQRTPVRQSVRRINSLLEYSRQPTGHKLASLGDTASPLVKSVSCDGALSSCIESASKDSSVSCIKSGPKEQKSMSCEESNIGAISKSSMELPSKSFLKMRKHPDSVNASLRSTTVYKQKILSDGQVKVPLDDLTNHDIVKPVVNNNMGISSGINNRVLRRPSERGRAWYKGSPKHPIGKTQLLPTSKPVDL
Assay: proximity ligation

- binding: binds
B1: Aurora A kinase (enzyme, UniProt O14965 1-403)
chain: MDRSKENCISGPVKATAPVGGPKRVLVTQQFPCQNPLPVNSGQAQRVLCPSNSSQRIPLQAQKLVSSHKPVQNQKQKQLQATSVPHPVSRPLNNTQKSKQPLPSAPENNPEEELASKQKNEESKKRQWALEDFEIGRPLGKGKFGNVYLAREKQSKFILALKVLFKAQLEKAGVEHQLRREVEIQSHLRHPNILRLYGYFHDATRVYLILEYAPLGTVYRELQKLSKFDEQRTATYITELANALSYCHSKRVIHRDIKPENLLLGSAGELKIADFGWSVHAPSSRRTTLCGTLDYLPPEMIEGRMHDEKVDLWSLGVLCYEFLVGKPPFEANTYQETYKRISRVEFTFPDFVTEGARDLISRLLKHNPSQRPMLREVLEHPWITANSSKPSNCQNKESASKQS
